In paper PMC12199426:
Results are given in words; binding and its absence hold for the method and conditions named. Binding seen in cells or lysates may run through a third protein. Here binding means that the protein was enriched with, or labelled near, the bait; the list need not be complete.

The chains behind the UniProt entries cited, without tags or fusion partners.
UniProt O35286: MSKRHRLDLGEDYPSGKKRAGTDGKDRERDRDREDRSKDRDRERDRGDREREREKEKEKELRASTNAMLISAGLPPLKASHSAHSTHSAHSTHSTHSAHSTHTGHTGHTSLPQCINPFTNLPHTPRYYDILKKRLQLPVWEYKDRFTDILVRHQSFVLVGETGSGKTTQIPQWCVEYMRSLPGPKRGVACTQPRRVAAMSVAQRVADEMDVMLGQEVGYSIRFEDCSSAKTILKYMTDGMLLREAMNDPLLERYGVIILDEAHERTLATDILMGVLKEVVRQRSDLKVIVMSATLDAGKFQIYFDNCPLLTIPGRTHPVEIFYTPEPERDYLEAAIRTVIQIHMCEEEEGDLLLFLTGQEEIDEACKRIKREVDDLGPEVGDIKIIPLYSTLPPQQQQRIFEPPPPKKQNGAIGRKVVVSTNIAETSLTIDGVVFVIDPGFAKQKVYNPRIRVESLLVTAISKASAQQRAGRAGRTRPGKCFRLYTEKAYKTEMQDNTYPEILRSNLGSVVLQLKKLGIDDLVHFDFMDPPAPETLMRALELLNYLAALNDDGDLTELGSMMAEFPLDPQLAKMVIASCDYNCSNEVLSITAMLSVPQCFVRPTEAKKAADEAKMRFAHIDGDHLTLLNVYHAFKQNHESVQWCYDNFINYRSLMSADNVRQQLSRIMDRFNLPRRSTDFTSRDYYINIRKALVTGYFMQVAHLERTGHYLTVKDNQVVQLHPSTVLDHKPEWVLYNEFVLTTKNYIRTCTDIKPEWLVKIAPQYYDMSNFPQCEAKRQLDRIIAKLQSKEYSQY

T1: Breast cancer amplified sequence 2 (Bcas2) (mouse (endogenous in splenic B cells)) (UniProt Q9D287)
T1 sequence: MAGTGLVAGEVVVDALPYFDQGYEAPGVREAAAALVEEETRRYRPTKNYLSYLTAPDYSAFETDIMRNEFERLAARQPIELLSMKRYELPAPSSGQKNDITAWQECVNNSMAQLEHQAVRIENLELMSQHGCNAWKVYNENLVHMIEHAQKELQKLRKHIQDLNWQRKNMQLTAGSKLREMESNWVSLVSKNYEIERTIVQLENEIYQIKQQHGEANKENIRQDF


Molecular target: T1, Breast cancer amplified sequence 2 (Bcas2) (mouse (endogenous in splenic B cells))
Assay: affinity purification with mass spectrometry; Bcas2 immunoprecipitates from mouse splenic B cells (IP-MS, Q-Exactive; Mascot search of the UniProt mouse database)

binding	Molecule
binds	DHX15 (from UniProt O35286 1-795)
binds	SRSF7 (protein, UniProt Q8BL97 1-267) MRSSARGRPLQAATAFFLSLFFFLRRFERGFWLWGGDSETKVYVGNLGTGAGKGELERAFSYYGPLRTVWIARNPPGFAFVEFEDPRDAEDAVRGLDGKVICGSRVRVELSTGMPRRSRFDRPPARRPFDPNDRCYECGEKGHYAYDCHRYSRRRRSRSRSRSHSRSRGRRYSRSRSRSRGRRSRSASPRRSRSVSLRRSRSASLRRSRSGSIIGSRYFQSRSRSRSRSRSISRPRSSRSKSRSPSPKRSRSPSGSPHRSASPERMD
